{
  "source": "patent US10058577B2",
  "about": "“Thermo-stable strains, products and methods thereof” (TRIPHASE PHARMACEUTICALS PVT. LTD., priority 2014, dated 2018)",
  "test_system": "Lactobacillus acidophilus TSP-La1",
  "assay": "Antibiotic susceptibility by disk diffusion method",
  "format": "cell-based",
  "procedure": "In order to ascertain the sensitivity of the thermostable strains in the food products towards antibiotics, Antibiotic susceptibility profile for Lactobacillus acidophilus is created by disk diffusion method. The susceptibility criteria used is established by Charteris et al. The Lactobacillus acidophilus is grown in Man Rogosa Sharpe Agar (MRSA).\n67.15 grams is suspended in 1000 ml distilled water and heated to boiling to dissolve the medium completely. It is sterilized by autoclaving at 15 lbs pressure (121° C.) for 20 minutes, mixed well and poured into sterile Petri plates.\nThe table below depicts the results carried out for a list of common antibiotics. The concentration of the tested antibiotics has been included depending upon their minimum inhibitory concentrations.",
  "data": [
    {"smiles": "O=C(O)c1cn(C2CC2)c2cc(N3CCNCC3)c(F)cc2c1=O", "note": "[Ciprofloxacin]", "values": [
      {"measurement": "Resistant/Sensitive", "setting": "10 μg", "result": "Sensitive"},
      {"measurement": "zone of inhibition at 10 µg/disc", "setting": "Lactobacillus acidophilus, TSPLA1, 10 μg, read-out: MIC Results", "result": 22, "unit": "mm"}
    ]}
  ]
}
